PubChem BioAssay AID493246, Drosophila RNAi Screening Center, 2011
Aim: 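Identify essential fly genes by loss of cell viability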 (primary screen). Cell system: Drosophila Kc and S2R+ cells. Knock-down reagent: long dsRNA against Drosophila genes. Measured: 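Raw, unnormalised count of remaining cells in each well; per-plate z-scores of cell number underlie the calls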. Scale: Kc cell number and S2R+ cell number: higher = more cells remaining. Call rule: 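Counted as a hit if cell number falls by a z-score of at least 3 within its plate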.
In all, the deposit lists about 21,000 reagents; this is an unselected part of those with a known target gene and a result. Of all reagents, 429 (2%) were called active. 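Values are raw and not normalised between plates; calls rest on per-plate z-scores that were not deposited.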 A number with no mark means an inactive call. A plus sign joins genes that one reagent is predicted to hit. The record does not give: the amount of reagent, the time to read-out.

gene knocked down	DRSC id	Kc cell number, rep 1	Kc cell number, rep 2	S2R+ cell number, rep 1	S2R+ cell number, rep 2
blp	DRSC15757	1.60e6	1.65e6	1.28e6	1.41e6
Sbf	DRSC16852	1.43e6	1.48e6	1.18e6	1.22e6
CG12986	DRSC19506	1.63e6	1.68e6	1.09e6	1.08e6
Coprox	DRSC01996	1.24e6	1.37e6	5.96e5	6.93e5
Ir76a	DRSC10987	1.50e6	1.57e6	1.19e6	1.21e6
dsx	DRSC12649	1.38e6	1.42e6	1.07e6	1.22e6
dsx	DRSC16934	1.45e6	1.55e6	1.03e6	1.13e6
Rrp5	DRSC15862	1.44e6	1.56e6	1.11e6	1.16e6
robo1	DRSC04712	1.52e6	1.62e6	1.20e6	1.38e6
phr6-4	DRSC03589	1.71e6	1.91e6	1.44e6	3.21e5
tal-1A + tal-2A + tal-AA + 1 more	DRSC12992	1.36e6	1.55e6	1.03e6	1.22e6
CG13996	DRSC02328	1.87e6	2.06e6	1.26e6	1.37e6
CG3330	DRSC15477	5.50e5		8.49e5	
CG17721	DRSC15253	1.66e6	1.61e6	1.37e6	1.49e6
CG5445	DRSC19943	1.53e6	1.51e6	1.13e6	1.21e6
CG32590	DRSC19594	1.59e6	1.64e6	1.04e6	1.27e6
pr	DRSC03596	1.54e6	1.72e6	1.37e6	1.45e6
CG13473	DRSC10017	1.49e6	1.53e6	1.18e6	1.23e6
CG3419 (retired record)	DRSC04368	1.52e6	1.60e6	1.22e6	1.35e6
CG3419 (retired record)	DRSC04369	1.50e6	1.55e6	1.17e6	1.34e6
Obp58d	DRSC04162	1.52e6	1.60e6	1.39e6	1.39e6
CG15472	DRSC18055	1.54e6	1.53e6	1.07e6	1.14e6
CG31098	DRSC14259	1.59e6	1.57e6	1.02e6	1.14e6
CG12259	DRSC14486	1.44e6	1.49e6	9.85e5	1.08e6
5PtaseI	DRSC16269	1.68e6	1.71e6	1.37e6	1.41e6
CG14245	DRSC14740	1.57e6	1.68e6	1.08e6	1.14e6
CG12828	DRSC06177	1.45e6	1.50e6	1.22e6	1.28e6
Awh	DRSC08140	1.40e6	1.28e6	1.01e6	1.20e6
Set	DRSC16861	1.68e6	1.77e6	1.39e6	1.49e6
CG10338	DRSC02039	1.58e6	1.63e6	1.35e6	2.73e5
Gr77a	DRSC11446	1.34e6	1.64e6	1.15e6	1.36e6
CG12498	DRSC18635	1.52e6	1.53e6	1.02e6	1.16e6

Continued (4 carried over from the part before).
gene knocked down	DRSC id	Kc cell number, rep 1	Kc cell number, rep 2	S2R+ cell number, rep 1	S2R+ cell number, rep 2
Set	DRSC16861	1.68e6	1.77e6	1.39e6	1.49e6
CG10338	DRSC02039	1.58e6	1.63e6	1.35e6	2.73e5
Gr77a	DRSC11446	1.34e6	1.64e6	1.15e6	1.36e6
CG12498	DRSC18635	1.52e6	1.53e6	1.02e6	1.16e6
mRpL2	DRSC10896	1.32e6	1.19e6	1.03e6	1.16e6
Dnaaf6	DRSC10473	1.39e6	1.39e6	1.31e6	1.47e6
ND-51L1	DRSC06072	1.58e6	1.63e6	1.18e6	1.37e6
CG6927	DRSC18407	4.47e5		9.04e5	
Amph	DRSC07578	1.39e6	1.39e6	1.12e6	1.20e6
Mipp1	DRSC11223	1.53e6	1.71e6	1.22e6	1.27e6
Nup44A	DRSC07248	1.28e6	1.32e6	9.81e5	1.08e6
CG15080	DRSC06511	1.97e6	1.87e6	1.27e6	1.45e6
CG8908	DRSC07297	1.59e6	1.64e6	1.24e6	1.38e6
oxt	DRSC08522	1.44e6	1.47e6	1.24e6	1.28e6
CG11788	DRSC06084	1.60e6	1.66e6	1.22e6	1.40e6
Ranbp16	DRSC20160	1.57e6	1.55e6	1.15e6	1.26e6
mthl2	DRSC10287	1.35e6	1.32e6	1.25e6	1.29e6
CG11951	DRSC14442	1.49e6	1.49e6	9.82e5	1.11e6
bru3	DRSC09280	1.38e6	1.44e6	9.73e5	1.17e6
bru3	DRSC09687	1.65e6	1.73e6	1.28e6	1.26e6
bru3	DRSC09887	1.30e6	1.28e6	1.35e6	1.49e6
eRF1	DRSC11779	1.50e6	1.61e6	1.12e6	1.17e6
Ir60e	DRSC04227	1.48e6	1.60e6	1.34e6	1.49e6
CG12016 + Dpm2	DRSC08224	1.21e6	1.32e6	1.11e6	1.05e6
Rtnl1	DRSC00851	1.54e6	1.52e6	1.04e6	1.24e6
Rtnl1	DRSC02684	1.42e6	1.37e6	7.05e5	8.91e5
Rtnl1	DRSC03122	1.41e6	1.46e6	6.80e5	8.24e5
UbcE2H	DRSC18221	5.89e5		9.17e5	
ssp3	DRSC02669	1.55e6	1.74e6	1.34e6	3.89e5
ssp3	DRSC02670	1.82e6	1.85e6	1.20e6	1.94e5
CG13643	DRSC14641	1.53e6	1.51e6	9.73e5	1.04e6
CG13643	DRSC14642	1.52e6	1.55e6	9.19e5	1.01e6
